Laboratory results: paper PMC12579238
These are yes or no findings as the source states them, for the method shown. Binding seen in cells or lysates may run through a third protein. A yes stands for co-enrichment or nearness to the bait. Other partners may have been found.

Amino acid sequences for entries named in this document (tags omitted).
UniProt O15085: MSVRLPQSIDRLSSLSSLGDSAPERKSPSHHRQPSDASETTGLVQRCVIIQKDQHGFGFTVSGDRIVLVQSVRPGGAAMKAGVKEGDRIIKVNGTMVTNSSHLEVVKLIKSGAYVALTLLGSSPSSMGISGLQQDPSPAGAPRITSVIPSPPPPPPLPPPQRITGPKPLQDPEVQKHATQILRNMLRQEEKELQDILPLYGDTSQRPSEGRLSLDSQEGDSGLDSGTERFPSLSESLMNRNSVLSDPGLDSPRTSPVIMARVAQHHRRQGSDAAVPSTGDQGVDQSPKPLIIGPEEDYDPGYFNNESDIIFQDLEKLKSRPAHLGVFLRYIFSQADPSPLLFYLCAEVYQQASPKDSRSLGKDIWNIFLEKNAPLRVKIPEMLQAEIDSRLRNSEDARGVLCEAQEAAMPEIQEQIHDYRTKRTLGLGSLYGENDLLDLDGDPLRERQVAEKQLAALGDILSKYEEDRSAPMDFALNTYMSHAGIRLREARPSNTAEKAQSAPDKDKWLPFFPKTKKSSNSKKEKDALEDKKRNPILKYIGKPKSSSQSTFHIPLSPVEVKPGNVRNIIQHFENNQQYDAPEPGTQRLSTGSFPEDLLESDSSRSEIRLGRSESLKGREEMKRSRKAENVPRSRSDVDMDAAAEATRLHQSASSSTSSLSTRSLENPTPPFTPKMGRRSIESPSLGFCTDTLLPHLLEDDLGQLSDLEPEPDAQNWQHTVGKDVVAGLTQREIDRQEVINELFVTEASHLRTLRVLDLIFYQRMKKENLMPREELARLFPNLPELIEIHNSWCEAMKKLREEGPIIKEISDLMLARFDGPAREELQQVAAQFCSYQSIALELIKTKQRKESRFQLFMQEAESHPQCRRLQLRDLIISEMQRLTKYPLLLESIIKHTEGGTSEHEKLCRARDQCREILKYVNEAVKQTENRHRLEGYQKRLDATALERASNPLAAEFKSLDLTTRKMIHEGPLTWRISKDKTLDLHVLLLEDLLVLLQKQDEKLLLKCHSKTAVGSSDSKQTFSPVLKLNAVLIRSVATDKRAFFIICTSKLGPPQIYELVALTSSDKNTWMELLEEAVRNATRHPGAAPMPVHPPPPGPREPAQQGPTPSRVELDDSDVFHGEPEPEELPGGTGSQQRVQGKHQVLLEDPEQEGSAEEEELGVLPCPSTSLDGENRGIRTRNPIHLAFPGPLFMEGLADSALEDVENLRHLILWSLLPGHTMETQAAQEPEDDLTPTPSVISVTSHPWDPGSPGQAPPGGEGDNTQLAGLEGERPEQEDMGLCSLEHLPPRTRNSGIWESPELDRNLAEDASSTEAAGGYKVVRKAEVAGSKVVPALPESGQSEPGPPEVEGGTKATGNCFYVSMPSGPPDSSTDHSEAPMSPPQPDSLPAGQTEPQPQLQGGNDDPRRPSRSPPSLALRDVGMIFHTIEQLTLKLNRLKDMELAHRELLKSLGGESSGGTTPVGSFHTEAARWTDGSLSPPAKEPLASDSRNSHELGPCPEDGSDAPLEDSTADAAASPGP
UniProt O75175: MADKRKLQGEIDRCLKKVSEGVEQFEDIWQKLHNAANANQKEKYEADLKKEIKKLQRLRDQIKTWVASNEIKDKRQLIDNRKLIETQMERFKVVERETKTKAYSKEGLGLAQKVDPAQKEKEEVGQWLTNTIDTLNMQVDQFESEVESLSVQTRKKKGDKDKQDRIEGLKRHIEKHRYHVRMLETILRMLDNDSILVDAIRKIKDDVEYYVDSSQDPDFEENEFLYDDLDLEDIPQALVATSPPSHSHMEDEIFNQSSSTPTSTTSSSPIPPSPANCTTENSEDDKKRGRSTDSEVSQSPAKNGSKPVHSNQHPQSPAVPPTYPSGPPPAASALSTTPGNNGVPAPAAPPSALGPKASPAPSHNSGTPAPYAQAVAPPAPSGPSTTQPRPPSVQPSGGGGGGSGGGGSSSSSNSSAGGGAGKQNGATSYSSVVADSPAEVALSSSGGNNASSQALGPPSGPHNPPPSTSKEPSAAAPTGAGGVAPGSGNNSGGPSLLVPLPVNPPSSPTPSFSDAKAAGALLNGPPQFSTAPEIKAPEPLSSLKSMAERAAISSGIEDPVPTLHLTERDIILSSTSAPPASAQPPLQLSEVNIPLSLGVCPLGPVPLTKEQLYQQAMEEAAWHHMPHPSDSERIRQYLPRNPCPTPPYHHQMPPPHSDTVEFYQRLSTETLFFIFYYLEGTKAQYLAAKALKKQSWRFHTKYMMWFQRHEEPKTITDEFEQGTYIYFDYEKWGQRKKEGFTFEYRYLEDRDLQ
UniProt Q9Y4B6: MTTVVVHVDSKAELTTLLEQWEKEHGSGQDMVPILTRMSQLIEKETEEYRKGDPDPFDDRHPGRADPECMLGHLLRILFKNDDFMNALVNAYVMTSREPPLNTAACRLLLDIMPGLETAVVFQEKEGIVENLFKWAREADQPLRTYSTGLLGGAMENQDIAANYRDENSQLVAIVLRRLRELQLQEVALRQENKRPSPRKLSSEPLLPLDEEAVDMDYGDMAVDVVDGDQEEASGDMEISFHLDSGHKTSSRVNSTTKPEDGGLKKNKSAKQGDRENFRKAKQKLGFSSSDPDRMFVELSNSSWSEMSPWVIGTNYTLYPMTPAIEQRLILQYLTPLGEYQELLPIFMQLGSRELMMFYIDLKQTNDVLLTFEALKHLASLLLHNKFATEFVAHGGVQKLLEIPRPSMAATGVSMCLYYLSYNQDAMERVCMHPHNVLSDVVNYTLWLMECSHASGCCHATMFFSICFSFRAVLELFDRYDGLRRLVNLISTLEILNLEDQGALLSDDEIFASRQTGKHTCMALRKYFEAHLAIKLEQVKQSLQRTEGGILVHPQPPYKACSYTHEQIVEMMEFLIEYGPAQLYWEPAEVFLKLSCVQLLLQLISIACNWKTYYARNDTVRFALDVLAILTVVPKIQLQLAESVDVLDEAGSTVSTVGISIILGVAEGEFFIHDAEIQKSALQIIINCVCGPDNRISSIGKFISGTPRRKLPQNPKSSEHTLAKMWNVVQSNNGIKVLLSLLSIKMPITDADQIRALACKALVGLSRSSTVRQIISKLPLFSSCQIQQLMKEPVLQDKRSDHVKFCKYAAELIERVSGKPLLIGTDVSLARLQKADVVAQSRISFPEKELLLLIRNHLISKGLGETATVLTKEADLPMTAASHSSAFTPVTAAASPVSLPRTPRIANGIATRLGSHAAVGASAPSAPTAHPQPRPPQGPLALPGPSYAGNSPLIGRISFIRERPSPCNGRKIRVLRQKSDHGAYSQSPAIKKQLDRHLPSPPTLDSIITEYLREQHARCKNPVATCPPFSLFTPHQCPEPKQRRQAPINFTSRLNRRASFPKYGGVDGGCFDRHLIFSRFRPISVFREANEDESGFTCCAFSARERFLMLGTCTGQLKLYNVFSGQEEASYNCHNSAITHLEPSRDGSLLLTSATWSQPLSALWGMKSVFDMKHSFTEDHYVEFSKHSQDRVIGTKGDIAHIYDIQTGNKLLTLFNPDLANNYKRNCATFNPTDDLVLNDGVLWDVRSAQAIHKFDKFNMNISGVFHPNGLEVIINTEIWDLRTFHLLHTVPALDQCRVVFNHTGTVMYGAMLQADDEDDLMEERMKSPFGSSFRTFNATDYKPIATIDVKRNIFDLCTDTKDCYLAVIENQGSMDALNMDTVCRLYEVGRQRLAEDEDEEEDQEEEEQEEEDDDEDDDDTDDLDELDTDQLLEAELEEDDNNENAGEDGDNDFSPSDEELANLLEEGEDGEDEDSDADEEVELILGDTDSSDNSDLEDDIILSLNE
UniProt O00303: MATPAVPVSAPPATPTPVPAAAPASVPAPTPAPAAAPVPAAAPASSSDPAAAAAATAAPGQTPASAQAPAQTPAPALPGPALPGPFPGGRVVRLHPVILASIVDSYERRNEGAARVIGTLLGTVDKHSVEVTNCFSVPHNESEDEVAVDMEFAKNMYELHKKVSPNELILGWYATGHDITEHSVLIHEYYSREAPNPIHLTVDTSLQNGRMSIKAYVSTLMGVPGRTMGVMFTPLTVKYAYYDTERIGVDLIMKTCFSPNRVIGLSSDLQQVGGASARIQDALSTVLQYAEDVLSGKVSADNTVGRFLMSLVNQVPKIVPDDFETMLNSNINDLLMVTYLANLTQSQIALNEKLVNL
UniProt O15372: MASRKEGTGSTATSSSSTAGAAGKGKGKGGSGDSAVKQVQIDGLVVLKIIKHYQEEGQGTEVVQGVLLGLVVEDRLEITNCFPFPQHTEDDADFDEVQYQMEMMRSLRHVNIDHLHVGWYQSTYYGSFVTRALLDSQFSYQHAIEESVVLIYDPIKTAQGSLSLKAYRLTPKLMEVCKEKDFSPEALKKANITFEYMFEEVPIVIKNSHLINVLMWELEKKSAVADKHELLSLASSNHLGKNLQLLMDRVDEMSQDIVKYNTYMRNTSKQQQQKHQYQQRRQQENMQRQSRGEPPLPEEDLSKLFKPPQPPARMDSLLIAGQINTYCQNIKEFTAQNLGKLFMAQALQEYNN
UniProt Q9Y3B2: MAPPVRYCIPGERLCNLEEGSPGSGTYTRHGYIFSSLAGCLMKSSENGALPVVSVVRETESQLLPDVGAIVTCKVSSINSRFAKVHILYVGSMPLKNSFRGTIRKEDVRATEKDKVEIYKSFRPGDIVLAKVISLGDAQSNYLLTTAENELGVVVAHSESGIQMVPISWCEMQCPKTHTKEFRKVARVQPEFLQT
UniProt P62318: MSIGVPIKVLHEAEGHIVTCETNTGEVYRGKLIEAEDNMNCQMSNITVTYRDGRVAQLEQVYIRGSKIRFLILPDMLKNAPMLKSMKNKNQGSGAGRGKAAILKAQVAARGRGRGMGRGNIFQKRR
UniProt Q14258: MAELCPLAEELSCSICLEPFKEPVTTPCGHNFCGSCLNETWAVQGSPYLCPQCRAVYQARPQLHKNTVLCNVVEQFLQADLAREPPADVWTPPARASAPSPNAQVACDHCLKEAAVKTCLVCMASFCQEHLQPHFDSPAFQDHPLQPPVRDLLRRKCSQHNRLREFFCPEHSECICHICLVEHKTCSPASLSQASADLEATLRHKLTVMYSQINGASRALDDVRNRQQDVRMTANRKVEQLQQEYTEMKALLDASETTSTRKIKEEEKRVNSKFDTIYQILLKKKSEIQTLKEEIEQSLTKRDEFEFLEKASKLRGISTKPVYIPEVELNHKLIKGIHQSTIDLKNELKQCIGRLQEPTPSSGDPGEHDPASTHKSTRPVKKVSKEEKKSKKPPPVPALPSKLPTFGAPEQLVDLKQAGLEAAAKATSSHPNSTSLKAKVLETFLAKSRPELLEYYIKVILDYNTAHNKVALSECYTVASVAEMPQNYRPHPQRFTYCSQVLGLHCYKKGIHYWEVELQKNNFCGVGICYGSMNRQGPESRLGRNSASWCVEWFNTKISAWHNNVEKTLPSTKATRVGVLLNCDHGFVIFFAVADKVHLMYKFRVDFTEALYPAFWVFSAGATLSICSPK
UniProt Q14157: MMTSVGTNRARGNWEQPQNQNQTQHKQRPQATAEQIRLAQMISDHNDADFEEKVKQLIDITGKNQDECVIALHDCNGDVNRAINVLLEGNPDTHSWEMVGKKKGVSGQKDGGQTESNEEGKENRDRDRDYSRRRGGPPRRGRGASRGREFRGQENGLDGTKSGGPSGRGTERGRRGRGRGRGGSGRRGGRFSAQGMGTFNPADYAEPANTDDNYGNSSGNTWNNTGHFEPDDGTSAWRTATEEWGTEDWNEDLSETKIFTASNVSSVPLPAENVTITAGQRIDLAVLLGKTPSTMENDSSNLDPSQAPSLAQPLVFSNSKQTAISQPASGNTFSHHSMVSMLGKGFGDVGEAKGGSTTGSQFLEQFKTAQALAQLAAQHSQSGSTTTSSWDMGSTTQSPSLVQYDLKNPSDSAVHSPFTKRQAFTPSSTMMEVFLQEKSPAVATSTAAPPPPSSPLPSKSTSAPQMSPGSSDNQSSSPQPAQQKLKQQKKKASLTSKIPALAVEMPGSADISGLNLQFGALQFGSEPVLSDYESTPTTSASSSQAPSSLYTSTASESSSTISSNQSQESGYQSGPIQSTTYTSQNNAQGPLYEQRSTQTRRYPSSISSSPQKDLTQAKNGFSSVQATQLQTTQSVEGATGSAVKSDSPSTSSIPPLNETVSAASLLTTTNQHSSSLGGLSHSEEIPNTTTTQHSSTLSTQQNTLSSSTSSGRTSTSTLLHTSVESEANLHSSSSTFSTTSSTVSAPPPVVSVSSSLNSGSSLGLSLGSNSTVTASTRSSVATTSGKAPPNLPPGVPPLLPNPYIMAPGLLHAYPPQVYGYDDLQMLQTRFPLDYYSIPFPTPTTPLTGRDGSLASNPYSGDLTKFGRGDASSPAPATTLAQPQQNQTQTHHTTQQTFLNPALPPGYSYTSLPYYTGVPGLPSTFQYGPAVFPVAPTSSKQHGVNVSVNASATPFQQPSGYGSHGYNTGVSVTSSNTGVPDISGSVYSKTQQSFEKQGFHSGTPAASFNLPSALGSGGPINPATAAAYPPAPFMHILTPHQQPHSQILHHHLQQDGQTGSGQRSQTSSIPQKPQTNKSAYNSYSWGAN

molecular target: T1, CLN7 (human (endogenous in SH-SY5Y)) (UniProt Q8NHS3); assay: affinity purification with mass spectrometry; endogenous CLN7 immunoprecipitated from 2.5 mg SH-SY5Y lysate with a polyclonal anti-CLN7 antibody raised against L9 (351-421aa, Proteintech) on G-sepharose beads; IgG as non-specific binding control; 4 independent replicates; cells under steady state culture conditions
T1 sequence: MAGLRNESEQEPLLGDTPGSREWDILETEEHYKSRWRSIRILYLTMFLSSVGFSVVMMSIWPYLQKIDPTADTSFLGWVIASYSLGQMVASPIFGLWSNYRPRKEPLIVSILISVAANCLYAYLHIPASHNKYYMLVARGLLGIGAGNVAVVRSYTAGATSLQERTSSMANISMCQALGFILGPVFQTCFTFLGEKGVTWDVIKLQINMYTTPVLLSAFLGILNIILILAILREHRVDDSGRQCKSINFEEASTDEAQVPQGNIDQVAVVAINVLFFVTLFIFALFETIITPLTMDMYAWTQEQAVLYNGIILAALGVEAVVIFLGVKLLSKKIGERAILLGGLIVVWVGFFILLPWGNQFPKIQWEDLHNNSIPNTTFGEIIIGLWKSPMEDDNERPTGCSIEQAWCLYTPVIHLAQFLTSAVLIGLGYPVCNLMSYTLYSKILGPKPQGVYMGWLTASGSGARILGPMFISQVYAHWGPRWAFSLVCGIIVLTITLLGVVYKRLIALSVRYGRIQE

binding, binds:
AGO2 (from UniProt Q9UKV8 1-859)
AKAP9 (from UniProt Q99996 1-3907)
AKAP13 (from UniProt Q12802 1-2813)
ANK2 (from UniProt Q01484 1-3957)
ARFGEF2 (from UniProt Q9Y6D5 1-1785)
ARHGEF7 (from UniProt Q14155 1-803)
ARHGEF11 (from UniProt O15085 1-1522)
ASCC1 (from UniProt Q8N9N2 1-400)
ASCC3 (from UniProt Q8N3C0 1-2202)
ATR (from UniProt Q13535 1-2644)
ATXN2 (from UniProt Q99700 1-1313)
BCLAF1 (from UniProt Q9NYF8 1-920)
CCDC85C (from UniProt A6NKD9 1-419)
CDK5RAP2 (from UniProt Q96SN8 1-1893)
CENTG3 (from UniProt Q96P47 1-875)
CNOT3 (from UniProt O75175 1-753)
DCAF1 (from UniProt Q9Y4B6 1-1507)
DDX21 (from UniProt Q9NR30 1-783)
DDX23 (from UniProt Q9BUQ8 1-820)
DDX41 (from UniProt Q9UJV9 1-622)
DEPDC5 (from UniProt O75140 1-1603)
DHX15 (from UniProt O43143 1-795)
DOCK6 (from UniProt Q96HP0 1-2047)
EIF3F (from UniProt O00303 1-357)
EIF3H (from UniProt O15372 1-352)
EIF3I (from UniProt Q13347 1-325)
EIF3S1 (from UniProt O75822 1-258)
EIF3S8 (from UniProt Q99613 1-913)
EIF4G1 (from UniProt Q04637 1-1599)
EXOSC1 (from UniProt Q9Y3B2 1-195)
EXOSC2 (from UniProt Q13868 1-293)
EXOSC5 (from UniProt Q9NQT4 1-235)
EXOSC6 (from UniProt Q5RKV6 1-272)
FAM98A (from UniProt Q8NCA5 1-518)
FOCAD (from UniProt Q5VW36 1-1801)
FRYL (from UniProt O94915 1-3013)
FXR1 (from UniProt P51114 1-621)
FXR2 (from UniProt P51116 1-673)
G3BP1 (from UniProt Q13283 1-466)
H1FX (from UniProt Q92522 1-213)
HBB (from UniProt P68871 1-147)
HDLBP (from UniProt Q00341 1-1268)
HEATR1 (from UniProt Q9H583 1-2144)
HERC2 (from UniProt O95714 1-4834)
IFT140 (from UniProt Q96RY7 1-1462)
INTS2 (from UniProt Q9H0H0 1-1196)
INTS3 (from UniProt Q68E01 1-1043)
INTS4 (from UniProt Q96HW7 1-963)
INTS5 (from UniProt Q6P9B9 1-1019)
INTS6 (from UniProt Q9UL03 1-887)
INTS7 (from UniProt Q9NVH2 1-962)
INTS8 (from UniProt Q75QN2 1-995)
INTS10 (from UniProt Q9NVR2 1-710)
INTS13 (from UniProt Q9NVM9 1-706)
KIF14 (from UniProt Q15058 1-1648)
KIF21A (from UniProt Q7Z4S6 1-1674)
LSM14B (from UniProt Q9BX40 1-385)
MAPRE2 (from UniProt Q15555 1-327)
MICALL2 (from UniProt Q8IY33 1-904)
MSH6 (from UniProt P52701 1-1360)
MYCBP2 (from UniProt O75592 1-4678)
MYO5A (from UniProt Q9Y4I1 1-1855)
MYO6 (from UniProt Q9UM54 1-1294)
NF1 (from UniProt P21359 1-2839)
NPM1 (from UniProt P06748 1-294)
PDE3A (from UniProt Q14432 1-1141)
PIK3R4 (from UniProt Q99570 1-1358)
PRKAR2B (from UniProt P31323 1-418)
RAD50 (from UniProt Q92878 1-1312)
RNF213 (from UniProt Q63HN8 1-5207)
RPA1 (from UniProt P27694 1-616)
RPA2 (from UniProt P15927 1-270)
SACS (from UniProt Q9NZJ4 1-4579)
SBF1 (from UniProt O95248 1-1868)
SF3B1 (from UniProt O75533 1-1304)
SIPA1L3 (from UniProt O60292 1-1781)
SMCHD1 (from UniProt A6NHR9 1-2005)
SNRPD3 (from UniProt P62318 1-126)
SNX3 (from UniProt O60493 1-162)
SRSF1 (from UniProt Q07955 1-248)
SZT2 (from UniProt Q5T011 1-3432)
TCF4 (from UniProt P15884 1-667)
TJP1 (from UniProt Q07157 1-1748)
TLK2 (from UniProt Q86UE8 1-772)
TPM1 (from UniProt P09493 1-284)
TRIM25 (from UniProt Q14258 1-630)
TRRAP (from UniProt Q9Y4A5 1-3859)
TTC37 (from UniProt Q6PGP7 1-1564)
TUBG1 (from UniProt P23258 1-451)
U2AF1L5 (human (endogenous in SH-SY5Y))
U2SURP (from UniProt O15042 1-1029)
UBAP2L (from UniProt Q14157 1-1087)
